In paper doi:10.1101/2023.08.04.551955:
Read-outs that look alike come from different tables or passages of the source. No constants are given. Whether binding was seen depends on the method and setting. In cells and extracts the contact can be indirect. Some results given as binding are weak or reduced against the parent protein; the word gives no strength.

Chains of the proteins cited; added tags and fusions are not shown. Lines headed by an entry give the natural chain unless they say otherwise; changes in a name come on top.
UniProt P29067, whole entry: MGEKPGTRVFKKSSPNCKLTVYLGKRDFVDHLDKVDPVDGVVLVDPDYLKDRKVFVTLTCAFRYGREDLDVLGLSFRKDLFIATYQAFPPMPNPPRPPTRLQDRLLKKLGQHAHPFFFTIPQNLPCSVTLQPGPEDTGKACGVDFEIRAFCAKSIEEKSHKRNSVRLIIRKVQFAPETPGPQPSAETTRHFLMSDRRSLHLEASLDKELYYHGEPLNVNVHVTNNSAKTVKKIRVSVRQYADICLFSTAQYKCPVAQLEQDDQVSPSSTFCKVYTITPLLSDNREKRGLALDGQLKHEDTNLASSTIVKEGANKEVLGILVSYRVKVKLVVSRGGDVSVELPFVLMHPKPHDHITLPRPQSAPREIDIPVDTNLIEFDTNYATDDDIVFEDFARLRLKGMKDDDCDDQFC
UniProt P29066, whole entry: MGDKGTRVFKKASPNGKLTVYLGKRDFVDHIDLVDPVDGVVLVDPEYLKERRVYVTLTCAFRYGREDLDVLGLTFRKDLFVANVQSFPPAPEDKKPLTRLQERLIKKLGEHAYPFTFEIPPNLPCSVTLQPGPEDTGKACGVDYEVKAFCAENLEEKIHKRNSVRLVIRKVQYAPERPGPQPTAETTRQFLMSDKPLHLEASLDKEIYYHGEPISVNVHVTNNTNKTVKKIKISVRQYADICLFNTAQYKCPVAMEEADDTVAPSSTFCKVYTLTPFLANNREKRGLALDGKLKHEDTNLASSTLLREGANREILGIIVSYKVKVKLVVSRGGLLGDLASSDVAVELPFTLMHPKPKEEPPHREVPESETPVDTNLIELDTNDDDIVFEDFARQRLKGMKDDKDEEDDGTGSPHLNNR

What was measured:
[1] = biological target: T1, AT1R-Cterm–Venus (plasma membrane-targeted C-terminus of rat AT1a angiotensin receptor) (mouse | rat); assay: FRET or BRET
T1 sequence (chain, phosphorylation induced by PMA (PKC) in the cells; residues not printed): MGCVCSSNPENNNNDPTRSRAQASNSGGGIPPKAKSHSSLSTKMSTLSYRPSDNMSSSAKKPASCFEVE

[2] = biological target: RLuc8-tagged wild-type β-arrestin2 (rat) (UniProt P29067); assay: FRET or BRET
[3] = biological target: K2A-βarr2–Venus (rat) (UniProt P29067); assay: co-IP
[4] = biological target: K2A-βarr1–Venus (rat) (UniProt P29066); assay: co-IP
[5] = biological target: wt-βarr1–Venus (rat) (UniProt P29066); assay: co-IP
[6] = biological target: wt-βarr2–Venus (rat) (UniProt P29067); assay: co-IP
[7] = biological target: RLuc8-tagged K2A (K11,12A)-mutant β-arrestin2 (rat) (UniProt P29067); assay: FRET or BRET
[8] = biological target: RLuc8-tagged wild-type β-arrestin2 (rat) (UniProt P29067); assay: FRET or BRET; remark: listed apart in the source

With “RLuc8-tagged K2A (K11,12A)-mutant β-arrestin2 (from UniProt P29067 1-410)” the binding [1] was “no binding”.

In the case of “RLuc8-tagged wild-type β-arrestin2 (from UniProt P29067 1-410)”, the binding [1] is reported as “binds”.

With “HTSF1-ST/AA–Venus (from UniProt O43719 1-755)” the binding [2] was “no binding”.

B1: HIV Tat-specific factor 1, endogenous (protein, UniProt O43719 1-755)
chain: MSGTNLDGNDEFDEQLRMQELYGDGKDGDTQTDAGGEPDSLGQQPTDTPYEWDLDKKAWFPKITEDFIATYQANYGFSNDGASSSTANVEDVHARTAEEPPQEKAPEPTDARKKGEKRKAESGWFHVEEDRNTNVYVSGLPPDITVDEFIQLMSKFGIIMRDPQTEEFKVKLYKDNQGNLKGDGLCCYLKRESVELALKLLDEDEIRGYKLHVEVAKFQLKGEYDASKKKKKCKDYKKKLSMQQKQLDWRPERRAGPSRMRHERVVIIKNMFHPMDFEDDPLVLNEIREDLRVECSKFGQIRKLLLFDRHPDGVASVSFRDPEEADYCIQTLDGRWFGGRQITAQAWDGTTDYQVEETSREREERLRGWEAFLNAPEANRGLRRSDSVSASERAGPSRARHFSEHPSTSKMNAQETATGMAFEEPIDEKKFEKTEDGGEFEEGASENNAKESSPEKEAEEGCPEKESEEGCPKRGFEGSCSQKESEEGNPVRGSEEDSPKKESKKKTLKNDCEENGLAKESEDDLNKESEEEVGPTKESEEDDSEKESDEDCSEKQSEDGSEREFEENGLEKDLDEEGSEKELHENVLDKELEENDSENSEFEDDGSEKVLDEEGSEREFDEDSDEKEEEEDTYEKVFDDESDEKEDEEYADEKGLEAADKKAEEGDADEKLFEESDDKEDEDADGKEVEDADEKLFEDDDSNEKLFDEEEDSSEKLFDDSDERGTLGGFGSVEEGPLSTGSSFILSSDDDDDDI
For B1, the binding [3] was “no binding”, the binding [4] was “no binding” and the binding [5] was “binds”. The binding [6] was “binds”.

B2: HTSF1–Venus (protein, UniProt O43719 1-755)
chain: B1 chain
For B2, the binding [7] was “no binding” and the binding [8] was “binds”.
